Reference: patent US20050176130A1
Results are given in words; binding and its absence hold for the method and conditions named. In cells and extracts the contact can be indirect. Some entries that bind do so weakly or less than the wild type.

The chains behind the UniProt entries cited, without tags or fusion partners.
UniProt P03418: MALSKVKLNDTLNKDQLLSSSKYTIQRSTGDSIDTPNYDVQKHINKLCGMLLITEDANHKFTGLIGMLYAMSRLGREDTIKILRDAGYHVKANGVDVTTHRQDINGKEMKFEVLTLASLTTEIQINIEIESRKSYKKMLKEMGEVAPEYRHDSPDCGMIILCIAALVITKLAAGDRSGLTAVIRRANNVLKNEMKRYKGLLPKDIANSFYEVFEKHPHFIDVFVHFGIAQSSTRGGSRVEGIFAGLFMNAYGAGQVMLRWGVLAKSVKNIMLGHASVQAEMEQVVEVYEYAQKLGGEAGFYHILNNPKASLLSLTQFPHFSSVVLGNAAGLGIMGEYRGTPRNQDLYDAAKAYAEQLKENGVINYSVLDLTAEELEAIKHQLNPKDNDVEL

Biological target: RSV nucleocapsid (N) protein (human respiratory syncytial virus, A2 strain) (UniProt P03418)
Assay: coimmunoprecipitation with anti-P monoclonal antibodies, 35S-labeled transfected HEp-2 cells, 37 or 39° C.

Substance | binding
RSV A2 P protein 174-176A (R174A/E175A/E176A) (from UniProt P03421 1-241) | binds
RSV A2 P protein G172S/E176G (from UniProt P03421 1-241) | binds
